Results are given in words; binding and its absence hold for the method and conditions named. Binding seen in cells or lysates may run through a third protein. Some entries that bind do so weakly or less than the wild type. Tags and fused reporters may be left off the sequences shown.
Biological target: T1, Hspa13 with a C-terminal Flag (human) (UniProt P48723)
T1 sequence: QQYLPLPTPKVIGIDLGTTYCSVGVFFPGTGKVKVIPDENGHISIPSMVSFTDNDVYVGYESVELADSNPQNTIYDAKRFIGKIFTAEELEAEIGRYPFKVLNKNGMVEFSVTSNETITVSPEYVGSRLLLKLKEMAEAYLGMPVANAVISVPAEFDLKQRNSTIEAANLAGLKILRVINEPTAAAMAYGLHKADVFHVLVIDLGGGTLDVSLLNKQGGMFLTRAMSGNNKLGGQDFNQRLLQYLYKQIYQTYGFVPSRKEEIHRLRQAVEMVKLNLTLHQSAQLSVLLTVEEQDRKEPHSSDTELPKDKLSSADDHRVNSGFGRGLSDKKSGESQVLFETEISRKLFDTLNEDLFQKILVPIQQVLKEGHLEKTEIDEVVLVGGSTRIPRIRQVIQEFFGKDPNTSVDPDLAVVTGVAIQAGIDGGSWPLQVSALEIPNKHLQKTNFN
Experiment: co-IP; optimisation of DSP crosslinking before lysis and anti-Flag immunopurification of Hspa13^Flag from HEK293T; maximal recovery with 2 mM DSP for 30 min (Fig. S2B)

B1: Bcap31 (protein, UniProt P51572 1-246)
chain: MSLQWTAVATFLYAEVFVVLLLCIPFISPKRWQKIFKSRLVELLVSYGNTFFVVLIVILVLLVIDAVREIRKYDDVTEKVNLQNNPGAMEHFHMKLFRAQRNLYIAGFSLLLSFLLRRLVTLISQQATLLASNEAFKKQAESASEAAKKYMEENDQLKKGAAVDGGKLDVGNAEVKLEEENRSLKADLQKLKDELASTKQKLEKAENQVLAMRKQSEGLTKEYDRLLEEHAKLQAAVDGPMDKKEE
B1 was tested, and the binding was “binds”.
